# Laboratory results taken from PubChem BioAssay AID493014 (National Center for Advancing Translational Sciences (NCATS), 2011).
# Several values for one entry are separate records, joined by “and”; a condition that tells them apart may be missing. Equal values may be shown once. Hit rate of the full screen: of about 340,000 compounds, about 170 (0.05%) were called active. This list was built around the results that the source calls inconclusive (neither active nor inactive); the mix of calls is not that of the screen. Calls come from the whole dose curve; as a rule, active = well fitted inhibition curve with a large enough effect in the signal ratio, with a control signal flat (not every such curve was filed as active); inconclusive = small, poorly fitted or top-dose-only effect, or effect the other way, or a change in a side signal; inactive = flat fitted curve, though single readings scatter; the % refers to the signal ratio. A potency beside an inconclusive call is a rough fit, not a confirmed value.
# Experiment: qHTS Assay to Find Inhibitors of Chronic Active B-Cell Receptor Signaling;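 for activity change, negative = inhibition: plate controls were basal doxycycline-induced cells for no effect and cells given 10 µM MG132 for full effect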
# Settings: ABC-DLBCL IkBa-CBG/CBR reporter, luminescence ratio (green luciferase fused to IkBa over red control in TMD8 lymphoma cells), 4 h; activity change, negative = inhibition: at 46.1 µM (top of the series) unless noted
# Procedure, shortened: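 TMD8 human ABC-DLBCL cells with doxycycline-inducible IκBα–green luciferase fusion and unfused red luciferase, in 0.5% FBS medium; compounds up to 46 uM, 4 h at 37C. Green/red luminescence ratio, filter-overlap corrected, fitted to concentration-response curves.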
# Potency is the fitted concentration of half-maximal effect.
SMILES,Potency,"activity change, negative = inhibition"
C=CCN1C=C/C(=C\C=C(C#N)C#N)c2ccccc21,"inconclusive: 2.06 µM [rising, full curve]",–
CCOc1cc(/C=C(\C#N)C(N)=O)ccc1OS(=O)(=O)c1ccccc1,–,inactive
CCc1ccc(S(=O)(=O)NCc2cn3cccc(C)c3n2)s1,–,inactive
Cc1c(C(=O)O)sc2nc(/C=C/c3cccc(F)c3)[nH]c(=O)c12,–,inconclusive: 265%
CCOC(=O)c1ccc(N2CCOCC2)c(NC(=O)c2ccc3c(c2)OCO3)c1,–,inactive
Nc1nc(Cl)c2ncn(C3OC(CO)C(O)C3O)c2n1 (configuration not stated),–,inconclusive: 3.66%
S=C1NCN(Cc2ccco2)CN1,"inconclusive: 5.01 µM [falling, single point]",–
O=[N+]([O-])c1ccc(C2CCCC/C2=N\OCc2cccc(F)c2)c([N+](=O)[O-])c1 (configuration not stated),"inconclusive: 8.91 µM [rising, partial curve, poor fit]",–
Nc1c(NC2CCCCC2)c2ccccc2oc1=O,"inconclusive: 5.17 µM [falling, single point]",–
Oc1c(Br)cc(Br)cc1CNc1cccc2cccnc12,–,inconclusive: -2.1%
CCCOc1ccc(-c2nnc(N)s2)cc1,–,inconclusive: 9.26%
CC1=C(C(N)=O)C(c2cccc(F)c2)n2nc(SCc3ccccc3)nc2N1 (configuration not stated),"inconclusive: 6.31 µM [falling, full curve, poor fit]",–
CCCNC(=O)c1ccccc1NS(=O)(=O)c1ccc(OC)c(OC)c1,–,inactive
O=c1[nH]c(=O)c2nc3c4ccccc4c4ccccc4c3nc2[nH]1,"inconclusive: 12.6 µM [rising, partial curve, poor fit]",–
COc1ccccc1C(=O)CC(=O)c1ccccc1,–,inconclusive: -8.73%
COc1ccccc1NC(=O)NCC(=O)Nc1ccc(F)c(F)c1,"inconclusive: 11.6 µM [falling, partial curve]",–
COC(=O)NNC(=O)C1CCC(C)CC1 (configuration not stated),–,inconclusive: 3.24%
Cc1c(C#N)c(N)nc2c3c(sc12)NC(=O)CC3c1ccc(Cl)cc1 (configuration not stated),"inconclusive: 18.4 µM [falling, partial curve, poor fit]",–
CN(C)N=Nc1nc2c([nH]1)c(=O)n(C)c(=O)n2C,–,inconclusive: 22.2%
CCOc1ccc(CCNc2ncnc3onc(-c4ccc(F)cc4)c23)cc1OCC,–,inconclusive: -20.4%
CN(C)c1oc(COc2ccccc2F)nc1C#N,–,inconclusive: 10.6%

# Taken from above:
# Entry of COc1ccccc1C(=O)CC(=O)c1ccccc1 under activity change, negative = inhibition: inconclusive: -8.73%
# Entry of Cc1c(C(=O)O)sc2nc(/C=C/c3cccc(F)c3)[nH]c(=O)c12 under activity change, negative = inhibition: inconclusive: 265%
# Entry of CCOC(=O)c1ccc(N2CCOCC2)c(NC(=O)c2ccc3c(c2)OCO3)c1 under activity change, negative = inhibition: inactive
# Entry of CCOc1ccc(CCNc2ncnc3onc(-c4ccc(F)cc4)c23)cc1OCC under activity change, negative = inhibition: inconclusive: -20.4%

# (listing goes on)

SMILES,Potency,"activity change, negative = inhibition"
O=C(CN1CCOCC1)N/N=C/c1ccc(-c2cccc(Cl)c2Cl)o1,–,inconclusive: 0.6%
CC1CCN(Cc2nnc(-c3cccc(Br)c3)o2)CC1,–,inconclusive: 5.88%
COc1ccc(C(=O)Nc2ccc(S(=O)(=O)N3CCCCC3)cc2)cc1,–,inconclusive: 3.76%
NC(=Nc1ccccc1)Nc1ccccc1,–,inconclusive: 5.88%
Cc1ccc(NC(=O)CSc2nn(-c3ccccc3)c(=S)s2)cc1S(=O)(=O)N(C)C,–,inconclusive: -11.8%
O=C(CN1CCN(c2cccc(C(F)(F)F)c2)CC1)NCc1ccccc1,–,inactive
Cc1csc(NC(=O)c2cc3c(C)nn(Cc4ccccc4Cl)c3s2)n1,–,inactive
O=C(NCCCn1ccnc1)c1ccc(-c2ccccc2)cc1,–,inactive
CCOC(=O)c1c(CSc2ccccc2)n(C)c2ccc(O)c(CN3CCN(C)CC3)c12,–,inconclusive: 1.15%
COc1cccc(CNC(=O)N2CCC(CN3CCC(C)CC3)CC2)c1,–,inactive
Cc1cnc(C(=O)OCc2nc3ccsc3c(=O)[nH]2)cn1,–,inactive
c1nc(NC2CCCCCC2)c2[nH]cnc2n1,"inconclusive: 20.6 µM [falling, partial curve]",–
Cc1cccc(NC(=O)c2ccc([N+](=O)[O-])s2)c1C,–,inconclusive: -0.0935%
CCOCCCNC(=O)NC(=O)CN1CCN(S(=O)(=O)c2ccc3c(c2)OCCO3)CC1,–,inactive
O=S(=O)(Nc1cccc(-c2ccc(N3CCCCCC3)nn2)c1)c1ccccc1Cl,"inconclusive: 35.5 µM [falling, single point]",–
CS(=O)(=O)c1ccc(Cl)c(NC(=O)CN2C(=O)C3CCCCC3C2=O)c1 (configuration not stated),–,inconclusive: 8.01%
CCCC(C)NS(=O)(=O)c1ccc(OC)c(C)c1 (configuration not stated),–,inactive
Nc1nc(C23CC4CC(CC(Cl)(C4)C2)C3)cs1,–,inconclusive: 10.7%
COc1ccc(C2=NN(CC(=O)NCc3ccccc3Cl)C(=O)CC2)cc1,"inconclusive: 10 µM [falling, partial curve, poor fit]",–
O=C(Nc1nnc(SCc2c(Cl)cccc2Cl)s1)c1cccc([N+](=O)[O-])c1,–,inconclusive: 9.64%
Cc1cccc(C(=O)Nc2ccc(C(=O)N/N=C/c3ccc(C)o3)cc2)c1,–,inconclusive: -11.1%

SMILES,Potency,"activity change, negative = inhibition"
COc1ccc(CCNC(=O)CN(c2ccc(OC)c(OC)c2)S(C)(=O)=O)cc1OC,–,inconclusive: -6.89%
COc1cc(/C=C2/NC(=O)NC2=O)cc(Br)c1OCc1ccccc1,–,inconclusive: 1.33%
COCC(=O)Nc1cc(Cl)ccc1C,–,inactive
C[C@H](CO)N1C[C@H](C)[C@@H](CN(C)C(=O)Nc2ccc(C(F)(F)F)cc2)Oc2c(NC(=O)NC3CCCCC3)cccc2C1=O,–,inactive
CC(Sc1nc2nn(-c3ccccc3)c(=O)c-2c2n1CCCCC2)C(N)=O (configuration not stated),–,inconclusive: -3.97%
CCN1C(=O)c2cccc3c(S(=O)(=O)Nc4ccccn4)ccc1c23,–,inconclusive: -1.14%
C[C@H](CO)N1C[C@H](C)[C@@H](CN(C)S(=O)(=O)c2cccs2)Oc2ccc(NC(=O)CCC(F)(F)F)cc2C1=O,–,inconclusive: -1.24%
O=C(CSc1nc2ncc(Cl)cc2[nH]1)Nc1cccc(F)c1,"inconclusive: 20 µM [falling, partial curve, poor fit]",–
FC(F)(F)Oc1ccc(Nc2nc(N3CCOCC3)nc(N3CCOCC3)n2)cc1,–,inconclusive: -4.92%
CCOc1ccc(NC(=O)Nc2cc(C(C)C)c(O)cc2C)cc1,–,inactive
Cc1ccc(S(=O)(=O)N2CCN(c3cnn(C)c(=O)c3Cl)CC2)cc1,–,inactive
O=C(Cc1sc(Nc2ccccc2)nc1-c1ccccc1)NCc1ccccn1,–,inconclusive: -2.1%
O=C1C=C(c2ccccc2)OC(=O)C1C(=O)c1ccccc1 (configuration not stated),"inconclusive: 20.6 µM [falling, partial curve] and inconclusive: 20 µM [falling, partial curve]",–
Cc1sc(NC(=O)c2c(F)cccc2F)nc1-c1ccccc1,–,inconclusive: 0.204%
O=c1cnnc(Nc2cccc(C(F)(F)F)c2)[nH]1,"inconclusive: 35.5 µM [falling, single point]",–
C#CCNc1ccc(C(=O)OCC)cc1,–,inconclusive: 3.37%
CCOc1ccc2c(c1)c1nc3ccccc3nc1n2C,–,inconclusive: 16.1%
CC1Cc2ccccc2N1C(=O)c1ccc(N2CCCCC2)c([N+](=O)[O-])c1 (configuration not stated),–,inconclusive: 22.9%
Cc1ccc(C2=Nc3ccccc3N=C(c3ccc([N+](=O)[O-])cc3)C2)c(O)c1,–,inconclusive: 7.72%
CN1CCN(Cc2cc(Cl)c3cccnc3c2OC(=O)c2cccs2)CC1,"inconclusive: 5.17 µM [falling, full curve]",–
CCOc1ccc(NS(=O)(=O)c2cc(NC(=O)c3ccc(C)cc3)ccc2Cl)cc1,–,inactive

SMILES,Potency,"activity change, negative = inhibition"
c1ccc(CSc2nnc([C@@H]3CCCN3)o2)cc1,–,inconclusive: 0.862%
O=C(O)c1cc(NC(=O)c2cccc(C(=O)Nc3cc(C(=O)O)cc(C(=O)O)c3)c2)cc(C(=O)O)c1,–,inconclusive: 7.44%
CCOC(=O)Cc1nnc(NC(=O)c2ccccc2OCC)s1,"inconclusive: 0.291 µM [falling, full curve, poor fit]",–
Cc1ccc2cc(C#N)c(NCCNC(=S)NCCCN(C)C)nc2c1C,–,inactive
COc1ccc(N(C)S(=O)(=O)c2cccc(C(=O)OCC(=O)c3c(N)n(C)c(=O)n(C)c3=O)c2)cc1,–,inconclusive: -9.74%
CC(NC(=O)CN(C)CC(=O)Nc1ccc(Cl)c(C(F)(F)F)c1)c1ccccc1 (configuration not stated),–,inactive
CCC(=O)N1CCc2cc(S(=O)(=O)N3CCN(c4ccccc4)CC3)ccc21,–,inactive
Cn1nnc2c(N3CCCCC3)ncnc21,"inconclusive: 3.55 µM [falling, partial curve, poor fit]",–
Cc1cn(-c2cccnc2)c(C)c1CNC[C@H]1O[C@@H](n2cnc3c(N)ncnc32)[C@H](O)[C@@H]1O,–,inconclusive: -4.49%
O=C1C(Cl)=C(N2CCOCC2)C(=O)N1c1cccc(Cl)c1,"inconclusive: 35.5 µM [falling, single point]",–
CCOc1ccc(-c2csc(N)c2C(=O)OC)cc1,–,inconclusive: 4.88%
CC(=O)c1sc(NC(=O)c2cccc(N3C(=O)CCC3=O)c2)nc1-c1ccccc1,–,inconclusive: 20.2%
CCC(C)[C@H](NC(=O)NCc1ccccc1Cl)C(=O)O (some centres not stated),–,inconclusive: -8.36%
O=C(NCc1ccccc1)NC12CC3CC(CC(C3)C1)C2,–,inactive
COc1ccc2nc(NC(=O)CSc3nc4ccccc4o3)sc2c1,–,inconclusive: 0.996%
COc1ccc(CNC(=O)C(=O)NCCC2CCCCN2S(=O)(=O)c2ccccc2)cc1 (configuration not stated),–,inactive
CC(=O)Nc1ccc(S(=O)(=O)NCC(=O)OC(C)c2ccccc2Cl)cc1 (configuration not stated),–,inconclusive: -0.894%
CCc1ccc(N(C(=O)CCC(=O)Nc2cc(C)on2)C(C(=O)NC2CCCC2)c2ccco2)cc1 (configuration not stated),–,inconclusive: 20.1%
O=C(CSc1nc(=O)n(CCCN2CCOCC2)c2c1CCCC2)Nc1ccc(F)cc1,"inconclusive: 20.6 µM [falling, single point]",–
